Experimental data as given in publication PMC4481407.
These are yes or no findings as the source states them, for the method shown. Binding calls can cover weak binding; strength is not graded here. Where a sequence is shown, tags or fusion partners need not be part of it.

Columns and labels:
Assay in all cases: pull-down; GST-HOAP polypeptides of different length on sepharose beads with bacterially expressed 6His-Peo; 20 mM Hepes KOH, 20 mM NaF, 0.8% NP40, 1 h at 4°C; His-Peo detected with anti-Peo antibody; both purified
[1] = target: GST-HOAP ∆1–3 (Drosophila melanogaster)
[2] = target: GST-HOAP ∆2, 3 (Drosophila melanogaster)
[3] = target: GST-HOAP ∆3 (Drosophila melanogaster)

binding [1]: binds
binding [2]: binds
binding [3]: binds
B1: 6His-Peo (protein, UniProt Q7K4V4 1-244)
chain: MTLDLDAHKKDDKLLITTIQQEYKILAEYKMIESEKLSGIYVIPSYANSLQWFGVFFGRQGLYAESVFRFTILLPDRFPDDKSLPSIIFQQDVIHPHVCPYTHSLDVSHAFPEWRCGEDHLWQLLKYLQVIFSDPLDSIRGIEVDKLKNSEAAELLMNNKEEYVARVQENIKESKEHIFDTPPTEDPHYIVFEKFQQDVHGPVLERIKAGRSKLTEPSAQQANGGHATGLSWVKEGEFKPLSIE
